The source of these data is PMC10928159.

Sequences of proteins named here, by UniProt entry; tags and fusion partners are left off.
UniProt Q93009: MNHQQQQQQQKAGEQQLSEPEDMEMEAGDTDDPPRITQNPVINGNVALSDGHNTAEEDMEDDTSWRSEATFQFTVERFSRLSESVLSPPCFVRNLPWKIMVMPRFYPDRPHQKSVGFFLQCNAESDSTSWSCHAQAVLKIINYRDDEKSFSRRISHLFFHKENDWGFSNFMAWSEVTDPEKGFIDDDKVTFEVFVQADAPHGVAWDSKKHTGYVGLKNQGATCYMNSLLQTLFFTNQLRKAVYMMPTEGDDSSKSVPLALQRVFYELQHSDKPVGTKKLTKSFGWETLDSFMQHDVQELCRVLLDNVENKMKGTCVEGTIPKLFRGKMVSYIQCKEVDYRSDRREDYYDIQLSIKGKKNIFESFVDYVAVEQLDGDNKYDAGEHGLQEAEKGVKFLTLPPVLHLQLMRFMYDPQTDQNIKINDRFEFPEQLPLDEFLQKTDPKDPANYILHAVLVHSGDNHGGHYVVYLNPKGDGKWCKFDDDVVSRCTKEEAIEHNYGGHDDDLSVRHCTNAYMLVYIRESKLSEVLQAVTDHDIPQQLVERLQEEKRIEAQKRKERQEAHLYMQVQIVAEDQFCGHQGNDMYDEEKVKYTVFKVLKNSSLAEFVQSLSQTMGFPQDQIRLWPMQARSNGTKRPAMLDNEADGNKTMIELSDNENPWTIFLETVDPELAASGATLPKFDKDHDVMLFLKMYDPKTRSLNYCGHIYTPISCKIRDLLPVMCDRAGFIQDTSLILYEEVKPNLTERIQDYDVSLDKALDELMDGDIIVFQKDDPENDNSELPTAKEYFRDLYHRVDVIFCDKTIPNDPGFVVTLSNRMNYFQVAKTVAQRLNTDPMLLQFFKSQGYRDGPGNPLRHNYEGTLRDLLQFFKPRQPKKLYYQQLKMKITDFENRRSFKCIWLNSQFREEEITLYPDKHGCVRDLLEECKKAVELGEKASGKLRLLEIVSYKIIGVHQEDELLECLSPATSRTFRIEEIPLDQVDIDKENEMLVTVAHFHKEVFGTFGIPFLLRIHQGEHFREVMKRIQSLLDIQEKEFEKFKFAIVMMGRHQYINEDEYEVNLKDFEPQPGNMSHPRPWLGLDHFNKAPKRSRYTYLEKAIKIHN
UniProt Q96P20: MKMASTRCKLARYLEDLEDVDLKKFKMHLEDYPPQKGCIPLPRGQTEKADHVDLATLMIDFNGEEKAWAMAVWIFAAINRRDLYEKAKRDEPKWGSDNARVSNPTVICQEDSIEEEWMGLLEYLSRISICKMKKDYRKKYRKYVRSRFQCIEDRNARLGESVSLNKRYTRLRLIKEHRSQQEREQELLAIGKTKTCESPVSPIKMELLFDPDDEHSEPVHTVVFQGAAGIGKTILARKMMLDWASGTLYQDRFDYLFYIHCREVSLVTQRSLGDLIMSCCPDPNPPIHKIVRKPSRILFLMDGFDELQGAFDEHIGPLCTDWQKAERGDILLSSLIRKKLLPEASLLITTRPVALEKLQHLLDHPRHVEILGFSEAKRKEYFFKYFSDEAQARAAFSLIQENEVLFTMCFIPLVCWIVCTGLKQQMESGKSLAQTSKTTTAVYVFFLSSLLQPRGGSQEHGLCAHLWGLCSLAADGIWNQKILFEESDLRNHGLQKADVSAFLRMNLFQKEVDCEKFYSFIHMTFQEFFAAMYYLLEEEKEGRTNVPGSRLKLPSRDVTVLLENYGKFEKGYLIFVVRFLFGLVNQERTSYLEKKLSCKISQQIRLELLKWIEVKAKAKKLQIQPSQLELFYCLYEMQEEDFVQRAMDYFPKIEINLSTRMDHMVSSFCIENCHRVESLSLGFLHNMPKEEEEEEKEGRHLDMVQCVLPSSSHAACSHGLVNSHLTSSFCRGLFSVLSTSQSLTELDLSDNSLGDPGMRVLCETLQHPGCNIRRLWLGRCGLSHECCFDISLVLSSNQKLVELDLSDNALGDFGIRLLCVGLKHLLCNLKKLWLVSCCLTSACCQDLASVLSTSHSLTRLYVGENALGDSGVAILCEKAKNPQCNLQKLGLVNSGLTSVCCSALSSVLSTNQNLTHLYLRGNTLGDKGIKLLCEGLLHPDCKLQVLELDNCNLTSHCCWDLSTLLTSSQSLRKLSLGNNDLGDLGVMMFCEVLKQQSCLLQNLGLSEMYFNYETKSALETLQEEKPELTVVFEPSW

The target in this assay is Ubiquitin-specific protease 7 (human (endogenous in U2OS)) (UniProt Q93009). In words: co-IP; U2OS lysate (50 mM Tris-HCl pH 7.5, 150 mM NaCl, 5 mM EDTA) precipitated with anti-USP7 and protein A/G agarose, 4 °C; IgG as control; western blot for NLRP3. For orientation: In western blotting, separated proteins are transferred to a membrane and probed.

Results are given in words; binding and its absence hold for the method and conditions named. In cells and extracts the contact can be indirect. Some entries that bind do so weakly or less than the wild type.

Consider NLRP3 (from UniProt Q96P20 1-1036), for which the binding result is on record as “binds”.
